Experimental data from PubChem BioAssay AID504834 (National Center for Advancing Translational Sciences (NCATS), 2011).
The whole screen tested about 320,000 compounds, of which about 22,000 (6.9%) were called active. Inconclusive results, whose numbers are uncertain, are shown with a selection of clear calls. The call rests on the fitted dose curve; in most records, active means well fitted inhibition curve with a large enough effect; inconclusive means small, poorly fitted or top-dose-only effect, or another doubt; inactive means no such curve, though single readings can be large or run the other way. A potency beside an inconclusive call is a rough fit, not a confirmed value.

assay: Primary qHTS for delayed death inhibitors of the malarial parasite plastid, 96 hour incubation; conditions: P. falciparum luciferase reporter growth; series mostly up to 28.7 µM
Outline: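 Parasite growth measured via integrated firefly luciferase reporter in P. falciparum. Infected erythrocytes at 2% hematocrit, 0.05% parasitemia final were treated 96 hours at 37 C under 5% CO2, and luminescence was read.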
Potency means the concentration at half of the fitted maximal effect.

| Compound | Potency |
| --- | --- |
| Fc1ccc(-[n+]2nc(Nc3ccccc3)sc2-c2c3ccccc3cc3ccccc23)cc1 | inconclusive: 0.104 µM [inhibitor, full curve, poor fit] |
| O=C(NCCc1ccc2c(c1)OCCO2)c1cccc(S(=O)(=O)N2CCCC2)c1 | inconclusive: 0.465 µM [inhibitor, full curve, poor fit] |
| COc1ccc(COC(=O)c2c(C)nn(-c3ccccc3)c2Cl)cc1 | inactive |
| Cc1ccc(S(=O)(=O)N2CCC(C(=O)Nc3ccc4c(c3)COC4=O)CC2)cc1 | inconclusive: 5.22 µM [inhibitor, partial curve, poor fit] |
| COCCNC(=O)Cn1cnc2c(cnn2-c2ccc(OC)cc2)c1=O | inconclusive: 14.7 µM [inhibitor, partial curve, poor fit] |
| CCn1cc(C(=O)N(C)c2ccc(OC)cc2OC)c2cc(OC)c(OC)cc2c1=O | inactive |
| O=C(NC(=O)N1CCCc2ccccc21)c1ccccc1 | inconclusive: 0.0415 µM [inhibitor, partial curve, poor fit] |
| COc1ccc(Cl)cc1NC(=O)C(C)N1CCN(C/C=C/c2ccccc2)CC1 (stereo unspecified) | active: 11.7 µM |
| CC(=NCc1ccco1)c1c(C)[nH]n(-c2nc3ccccc3s2)c1=O | inconclusive: 10.4 µM [inhibitor, single point] |
| O=C(NCc1ccco1)C(c1ccccc1)N(C(=O)Cc1cccs1)c1cccnc1 (stereo unspecified) | inconclusive: 0.0029 µM [inhibitor, full curve, poor fit] |
| Cc1cc(NC(=O)C2CCCCC2C(=O)O)no1 (stereo unspecified) | inconclusive: 13.1 µM [inhibitor, partial curve, poor fit] |
| O=C(NC1CCCC1)C1CCN(c2cnccn2)CC1 | inconclusive: 2.94 µM [inhibitor, partial curve, poor fit] |
| S=c1[nH]nc(-c2cccs2)n1/N=C/c1c(Cl)cccc1Cl | inactive |
| CCN1CCN(C(=O)Cn2ncc3ccsc3c2=O)CC1 | inconclusive: 7.38 µM [inhibitor, partial curve, poor fit] |
| O=C(/C=C/c1ccc([N+](=O)[O-])cc1)c1cccnc1 | inactive |
| CS(=O)(=O)c1ccccc1-c1nnc(NC(=O)c2ccc3ncsc3c2)o1 | inactive |
| Cc1ccc(C)c2[nH]c(=O)c(CCNC(=O)c3ccc(S(=O)(=O)N(C)C)cc3)cc12 | inconclusive: 8.28 µM [inhibitor, partial curve] |
| C(=C\c1ccccc1)/CN1CCN(Cc2nc(Cc3ccccc3)no2)CC1 | inconclusive: 5.22 µM [inhibitor, partial curve, poor fit] |
| O=C(CN(C(=O)CCC(=O)Nc1nccs1)c1ccc(F)cc1)NCCc1ccccc1 | inconclusive: 4.15 µM [inhibitor, full curve, poor fit] |
| O=C(NC1CCCCCCC1)c1ccc(F)c(S(=O)(=O)N2CCOCC2)c1 | inconclusive: 18.5 µM [inhibitor, single point] |

| Compound | Potency |
| --- | --- |
| N=c1c(C(=O)NCC2CCCO2)cc2c(=O)n3ccccc3nc2n1C1CCCCC1 (stereo unspecified) | active: 2.62 µM |
| Cc1cc(NC(=O)CSc2nnc(NC(=O)C3CC(=O)N(c4ccccc4C)C3)s2)no1 (stereo unspecified) | inactive |
| Cc1ccc(C(=O)N2CCCC(N3CCN(c4cccc(C(F)(F)F)c4)CC3)C2)s1 (stereo unspecified) | inconclusive: 2.62 µM [inhibitor, single point] |
| Cc1cccc(CCNC(=O)c2cc(S(=O)(=O)N3CCOCC3)cn2C)c1 | inconclusive: 2.08 µM [inhibitor, full curve] |
| Cc1[nH]nc2c1C(=O)CC(C)(C)C2 | inconclusive: 13.1 µM [inhibitor, single point] |
| CC(=O)N[C@@H](C)c1nc2ccccc2n1CCCN1CCN(c2nc(-c3ccc(C)cc3)cs2)CC1 | inconclusive: 2.94 µM [inhibitor, full curve, poor fit] |
| COCC1CCCCN1C(=O)c1ccc(OC2CCN(Cc3ccccn3)CC2)cc1 (stereo unspecified) | inconclusive: 8.28 µM [inhibitor, partial curve] |
| COc1ccc(C(=O)C2CCCN(S(=O)(=O)c3cccc(C)c3)C2)c(C)c1 (stereo unspecified) | inconclusive: 10.4 µM [inhibitor, single point] |
| c1ccc2c(c1)Nc1ccncc1S2 | inconclusive: 18.5 µM [inhibitor, partial curve, poor fit] |
| O=C(/C=C/c1cccc([N+](=O)[O-])c1)c1cccs1 | inconclusive: 1.85 µM [inhibitor, partial curve, poor fit] |
| CCC1=C(OC(=O)N(CC)CC)N2C(=O)OC(=NCC3CC3)[C@]2(Cc2ccccc2)[C@H]2C1=CC[C@H]1C(=O)NC(=O)[C@H]12 | active: 7.38 µM |
| O=C(COC(=O)Cn1[nH]c(=O)c2ccccc2c1=O)NNC(=O)c1ccc(Br)cc1 | inactive |
| O=S(=O)(c1ccccc1)c1cnn2c(C(F)(F)F)cc(-c3ccc(F)cc3)nc12 | inconclusive: 0.928 µM [inhibitor, partial curve, poor fit] |
| Cc1cccc(C(=O)N2CCCC(Nc3ccc(C)c(C)c3)C2)n1 (stereo unspecified) | inconclusive: 18.5 µM [inhibitor, single point] |
| O=C(O)/C=C\C(=O)Nc1ccc(N2CCN(c3ccc(Cl)c(Cl)c3)CC2)cc1 | inconclusive: 13.1 µM [inhibitor, single point] |
| CCn1c(SCc2cccc(F)c2)nc2c(c1=O)SCC2 | inactive |
| CCCCN(CC)CCCNC(=O)c1ccc(CS(=O)(=O)c2c(Cl)cccc2Cl)o1 | inconclusive: 18.5 µM [inhibitor, single point] |
| C=CCn1cccc(C(=O)Nc2cc(OC)c(OC)c(OC)c2)c1=O | inconclusive: 1.17 µM [inhibitor, partial curve, poor fit] |
| COc1ccccc1/C=N/NC(=O)CO | inconclusive: 10.4 µM [inhibitor, single point] |
| COc1cc(/C=C/C(=O)OCC(=O)N(C)C2CCS(=O)(=O)C2)ccc1OC(F)F (stereo unspecified) | inconclusive: 18.5 µM [inhibitor, partial curve, poor fit] |

Part of the list above, bar-delimited.
Compound | Potency
Cc1cc(NC(=O)CSc2nnc(NC(=O)C3CC(=O)N(c4ccccc4C)C3)s2)no1 (stereo unspecified) | inactive
Cc1ccc(C(=O)N2CCCC(N3CCN(c4cccc(C(F)(F)F)c4)CC3)C2)s1 (stereo unspecified) | inconclusive: 2.62 µM [inhibitor, single point]
Cc1cccc(CCNC(=O)c2cc(S(=O)(=O)N3CCOCC3)cn2C)c1 | inconclusive: 2.08 µM [inhibitor, full curve]
